Experimental data reported in publication PMC10849766.
No constants are given. Whether binding was seen depends on the method and setting. In cells and extracts the contact can be indirect. Binding calls can cover weak binding; strength is not graded here.

Target: T1, Vascular endothelial (VE)-cadherin (human (endogenous in HBMECs)) (UniProt P33151)
T1 sequence: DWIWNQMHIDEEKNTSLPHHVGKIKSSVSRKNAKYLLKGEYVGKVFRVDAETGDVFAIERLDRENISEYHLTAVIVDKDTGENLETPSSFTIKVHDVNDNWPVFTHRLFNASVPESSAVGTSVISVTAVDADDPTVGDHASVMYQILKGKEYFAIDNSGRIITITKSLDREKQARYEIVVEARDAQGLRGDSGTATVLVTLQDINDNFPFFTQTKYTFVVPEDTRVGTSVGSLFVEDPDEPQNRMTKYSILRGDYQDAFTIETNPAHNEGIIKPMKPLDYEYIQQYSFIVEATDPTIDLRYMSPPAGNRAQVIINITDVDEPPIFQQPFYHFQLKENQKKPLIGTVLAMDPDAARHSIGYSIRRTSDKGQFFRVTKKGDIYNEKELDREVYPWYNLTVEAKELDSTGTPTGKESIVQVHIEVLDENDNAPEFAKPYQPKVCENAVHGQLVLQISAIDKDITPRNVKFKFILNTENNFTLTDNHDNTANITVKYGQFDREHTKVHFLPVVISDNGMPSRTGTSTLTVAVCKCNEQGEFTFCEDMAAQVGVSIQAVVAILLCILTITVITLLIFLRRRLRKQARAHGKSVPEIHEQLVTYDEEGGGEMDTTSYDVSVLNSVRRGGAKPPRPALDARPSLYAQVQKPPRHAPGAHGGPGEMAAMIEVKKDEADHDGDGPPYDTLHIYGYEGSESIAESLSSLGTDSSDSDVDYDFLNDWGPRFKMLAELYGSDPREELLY
Test: co-IP; IP with VE-cadherin antibody from HBMEC lysates, Western blot for α-catenin and β-catenin; cells under hypoxia plus IL-1β for 24 hours with rhTIMP2, rhAlaTIMP2 or PBS; also cells transfected with WT, Y419D or Y419A Src

“α-catenin (human (endogenous in HBMECs))” was tested, and the binding was “binds”.
